Measurements as given in US20230076977A1, “UTROPHIN UPREGULATION COMPOUNDS FOR DUCHENNE MUSCULAR DYSTROPHY THERAPY” (THE TRUSTEES OF THE UNIVERSITY OF PENNSYLVANIA, priority 2020, published 2023).
Starred links: 1 amine or outer side, 2 acyl side, 3 side chain; linkers in the order of their positions; H or OH if unused. Positions of bridges follow the written chain, without caps; N, C: chain ends. Non-standard residues stand in square brackets, D forms with d. Residues, ends and D or L forms follow the SMILES beside them. Chains are numbered I, II in the order given. Hexamethylenediamine = C(CCCN[*:2])CCN[*:1]; Dip = N[C@H](C(=O)O)C(c1ccccc1)c1ccccc1; Chg = N[C@H](C(=O)O)C1CCCCC1; NMeA = CN[C@@H](C)C(=O)O

Test system: 5′- and 3′-UTRs of human utrophin
Assay: Screening assay: C2C12 stable reporter line, CMV-driven luciferase flanked by utrophin 5′ and 3′ UTRs
Assay type: cell-based
Settings: for H2LPS: Curve Shape Score*(Upper limit-Lower Limit)*EC50score*Fold Diff Score, unitless; for Curve shape score (0/1): success of dr4p1 4-parameter fit; for Cluster: clustering of dose-response profiles (5 nM to 10 μM), complete linkage, Euclidean distance
Experimental: The construct for the HTS assay was generated by cloning the 5′- and 3′-UTRs of human utrophin into pGL4:50-hygro (Promega, Madison, Wis.) at the 5′ and 3′ of the luciferase coding sequence and has been described previously by Moorwood. […] For the counterscreening assay, the pGL4:50-hygro plasmid was used alone. Low passage C2C12 cells obtained from ATCC were transfected with either constructs, stably selected with 500 μg/mL hygromycin and subcloned using two rounds of serial dilutions to isolate single cell-derived colonies in a 96 wells plate format. […] The selected clones were cultured in presence of 100 μg/mL hygromycin B and were transferred to the HTS Facility at the University of Pennsylvania for implementation into a 384-wells format suitable for HTS.
The construct for generating the screening C2C12 cell line carrying the 5′ and 3′UTR of the human utrophin gene is described by Moorwood. […] Some compounds could increase light emission independently from the 5′ and 3′UTR regions, i.e., by activating the CMV promoter or increasing overall mRNA synthesis. Therefore, in order to distinguish such compounds, a counterscreening cell line stably expressing only the CMV-driven luciferase gene was generated (FIG. 1A). To determine optimal conditions for the implementation in a 384-wells high-throughput format, evaluated were DMSO tolerance, optimal cell density and incubation time (FIG. 5A-5C).
A first criterion for evaluating the performance of the selected hits was whether their activity was dose-dependent. After performing a dose-response analysis (5 nM to 10 μM) of each hit in the screening cell line, a clustering approach was applied (complete linkage with Euclidean distance measurement) to highlight similarities between compounds profiles. […] By modeling each dose-response trace with a 4-parameter logistic model applied to the Z— score values (FIG. 2B), the EC50 of each molecule was calculated.
Cells were allowed to attach overnight at 37° C., 5% CO2 in a humidified chamber. […] Compounds were added to a final concentration of 1 μM and 100 nM in 0.2% DMSO. Columns 1 and 23 were treated with 0.2% DMSO (negative control). Columns 2 and 24 were treated with 100 nM Panobinostat (positive control). Cells were incubated for 24 hours at 37° C., 5% CO2. […] Luminescence was measured on an EnVisionXcite Multilabel Plate Reader (PerkinElmer), using ultrasensitive luminescence measurement technology.

Compound | Fold diff score (0 to 2) | H2LPS | Curve shape score (0/1) | Cluster
O=C(Nc1ccc([N+](=O)[O-])cc1Cl)c1cc(Cl)ccc1O [Niclosamide] | 0 (0 if fold difference<2) | 0 | 0 | –
Abexinostat [PCI-24781] | 2 (2 if fold difference>10) | 176.72 | 1 | 4 (Clusters 1 and 4 included compounds with high potency and EC50 on the order of 10 nM and 100-700 nM respectively)
Cc1nc2ccc(-n3ncc(C(=O)c4cc5ccccc5[nH]4)c3N)cc2[nH]1 [CH5183284] | 0 (0 if fold difference<2) | 0 | 0 | –
O=C(/C=C/c1ccc(CN(CCO)CCc2c[nH]c3ccccc23)cc1)NO [LAQ824, Dacinostat] | 0 (0 if fold difference<2) | 0 | 0 | –
Cc1cc(O)c(-c2ccc([C@@H](C)CN)cc2)c2c1[nH]c(=O)c1sccc12.Cl [OTS514 hydrochloride] | 0 (0 if fold difference<2) | 0 | 0 | –
COc1cc(NC(=O)c2ccccn2)ccc1Cl [VU 0361737] | 0 (0 if fold difference<2) | 0 | 0 | –
O=C1Cc2c([nH]c3ccc(Br)cc23)-c2ccccc2N1 [Kenpaullone] | 1 (1 if fold difference>2) | 51.67 | 1 | –
CCN(CC)Cc1ccc2cc(COC(=O)Nc3ccc(C(=O)NO)cc3)ccc2c1 [Givinostat] | 2 (2 if fold difference>10) | 186.4 | 1 | 4 (Clusters 1 and 4 included compounds with high potency and EC50 on the order of 10 nM and 100-700 nM respectively)
CCCCc1nc2cc(/C=C/C(=O)NO)ccc2n1CCN(CC)CC [Pracinostat] | 2 (2 if fold difference>10) | 225.49 | 1 | 4 (Clusters 1 and 4 included compounds with high potency and EC50 on the order of 10 nM and 100-700 nM respectively)
O=C(/C=C/c1cccc(S(=O)(=O)Nc2ccccc2)c1)NO [Belinostat] | 2 (2 if fold difference>10) | 173.65 | 1 | 4 (Clusters 1 and 4 included compounds with high potency and EC50 on the order of 10 nM and 100-700 nM respectively)
Panobinostat | 1 (1 if fold difference>2) | 88.24 | 1 | –
Cn1cc(CNCC2CCN(c3ncc(C(=O)NO)cn3)CC2)c2ccccc21 [Quisinostat] | 0 (0 if fold difference<2) | 0 | 0 | –
C#Cc1cccc(Nc2ncnc3cc(OC)c(OCCCCCCC(=O)NO)cc23)c1 [CUDC-101] | 2 (2 if fold difference>10) | 68.68 | 1 | –
O=C1Nc2cc(Br)ccc2/C1=C1/Nc2ccccc2/C1=N\O [BIO] | – | 24 | 1 | –
CC(C)Oc1ccc2c(=O)c(-c3ccccc3)coc2c1 [ipriflavone] | 0 (0 if fold difference<2) | 0 | 0 | –
Cc1cc(C)cc(C(=O)NOCCCCCC(=O)NO)c1 [LMK-235] | 2 (2 if fold difference>10) | 173.61 | 1 | 4 (Clusters 1 and 4 included compounds with high potency and EC50 on the order of 10 nM and 100-700 nM respectively)
O=C(CCCCCN1C(=O)c2cccc3cccc(c23)C1=O)NO [Scriptaid] | 2 (2 if fold difference>10) | 124.01 | 1 | –
CC(=O)O/N=C1/C(=C2/C(=O)Nc3cc(Br)ccc32)Nc2ccccc21 [BIO-acetoxime] | 0 (0 if fold difference<2) | 0 | 1 | –
C=C(C)CSc1nnc2c(n1)[nH]c1ccccc12 [Rbin-1] | 0 (0 if fold difference<2) | 0 | 0 | –
CN[C@@H](C)C(=O)N[C@H](C(=O)N1CCC[C@H]1C(=O)N[C@H](C(=O)NCCCCCCNC(=O)[C@@H](NC(=O)[C@@H]1CCCN1C(=O)[C@@H](NC(=O)[C@H](C)NC)C1CCCCC1)C(c1ccccc1)c1ccccc1)C(c1ccccc1)c1ccccc1)C1CCCCC1 [BV-6] (I: H-[NMeA][Chg]P[Dip] / II: H-[NMeA][Chg]P[Dip]; linker I:C-II:C via Hexamethylenediamine) | 2 (2 if fold difference>10) | 42.02 | 1 | –
COc1ccc(-c2nc(N3CCOCC3)c3sc(CN(C)c4ncc(C(=O)NO)cn4)cc3n2)cn1 [CUDC-907] | 0 (0 if fold difference<2) | 0 | 1 | –
CC(/C=C/C(=O)NO)=C\[C@@H](C)C(=O)c1ccc(N(C)C)cc1 [Trichostatin A] | 2 (2 if fold difference>10) | 276.27 | 1 | –
CC(C)[C@H](C(=O)Nc1ccc(C(=O)NO)cc1)c1ccccc1 [AR-42] | 2 (2 if fold difference>10) | 239.74 | 1 | 4 (Clusters 1 and 4 included compounds with high potency and EC50 on the order of 10 nM and 100-700 nM respectively)
CN(C)c1ccc(C(=O)NCCCCCCC(=O)NO)cc1 [M344] | 1 (1 if fold difference>2) | 74.15 | 1 | –
